Data reported in publication PMC3937361.
No constants are given. Whether binding was seen depends on the method and setting. In cells and extracts the contact can be indirect. Binding can be weak; no strength is given.

Molecular target: T1, outer membrane protein A (OmpA), endogenous in S. flexneri HND115 (S. flexneri (endogenous in HND115))
T1 sequence: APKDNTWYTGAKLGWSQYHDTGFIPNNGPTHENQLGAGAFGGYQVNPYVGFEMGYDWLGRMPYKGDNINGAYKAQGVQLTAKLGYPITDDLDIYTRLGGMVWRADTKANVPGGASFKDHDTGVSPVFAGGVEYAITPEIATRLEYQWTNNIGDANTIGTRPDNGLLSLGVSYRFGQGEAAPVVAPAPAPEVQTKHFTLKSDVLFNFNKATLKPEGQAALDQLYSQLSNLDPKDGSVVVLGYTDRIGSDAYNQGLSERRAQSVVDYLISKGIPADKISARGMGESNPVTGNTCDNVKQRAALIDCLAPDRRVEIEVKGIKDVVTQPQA
Assay: cross-linking; in vivo, 1% formaldehyde for 15 min at room temperature on S. flexneri HND115 or HND93 carrying the plasmids, PBS pH 6.8; samples heated at 37°C (cross-links kept) or 95°C (broken); blots with anti-HA and anti-OmpA

PhoN2-HA R192P (pHND19_(R192P)) (S. flexneri)
binding: binds
